The other results are listed elsewhere or left out.
What was measured:
Assay in all cases: log2 fold change, soluble protein after heating vs DMSO (PISA); higher = thermal stabilisation; K562 cells, 10 uM, 30 min; active = over 0.2 and 3.5 SD of the protein, either way, in both replicates (recomputed)
[1] = compound: CS(=O)(=O)c1ccc(-c2cnc(N)c(C(=O)Nc3ccccc3)n2)cc1
Summary of the method: (§1)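 Values are thermal stability changes relative to control samples and are taken from duplicates. They are stated as log2 fold changes. Before quantification by TMTpro 16plex LC-MS/MS with equalised channel sums, K562 cells at 2×10^6 cells/mL were treated with 10 μM compound for 30 min, heated in aliquots for 3 min across 48°C-58°C, pooled, extracted in PBS with 0.5% NP-40 at 4°C, and centrifuged at 21,000xg for 90 min to give the soluble supernatant.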

Chains of the proteins cited; added tags and fusions are not shown. Lines headed by an entry give the natural chain unless they say otherwise; changes in a name come on top.
UniProt O75340: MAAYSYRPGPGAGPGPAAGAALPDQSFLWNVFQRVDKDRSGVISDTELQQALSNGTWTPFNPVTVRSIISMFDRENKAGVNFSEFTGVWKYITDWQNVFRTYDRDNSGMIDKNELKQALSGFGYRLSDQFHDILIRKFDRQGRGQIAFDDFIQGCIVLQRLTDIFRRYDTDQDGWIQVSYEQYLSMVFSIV
UniProt P56645: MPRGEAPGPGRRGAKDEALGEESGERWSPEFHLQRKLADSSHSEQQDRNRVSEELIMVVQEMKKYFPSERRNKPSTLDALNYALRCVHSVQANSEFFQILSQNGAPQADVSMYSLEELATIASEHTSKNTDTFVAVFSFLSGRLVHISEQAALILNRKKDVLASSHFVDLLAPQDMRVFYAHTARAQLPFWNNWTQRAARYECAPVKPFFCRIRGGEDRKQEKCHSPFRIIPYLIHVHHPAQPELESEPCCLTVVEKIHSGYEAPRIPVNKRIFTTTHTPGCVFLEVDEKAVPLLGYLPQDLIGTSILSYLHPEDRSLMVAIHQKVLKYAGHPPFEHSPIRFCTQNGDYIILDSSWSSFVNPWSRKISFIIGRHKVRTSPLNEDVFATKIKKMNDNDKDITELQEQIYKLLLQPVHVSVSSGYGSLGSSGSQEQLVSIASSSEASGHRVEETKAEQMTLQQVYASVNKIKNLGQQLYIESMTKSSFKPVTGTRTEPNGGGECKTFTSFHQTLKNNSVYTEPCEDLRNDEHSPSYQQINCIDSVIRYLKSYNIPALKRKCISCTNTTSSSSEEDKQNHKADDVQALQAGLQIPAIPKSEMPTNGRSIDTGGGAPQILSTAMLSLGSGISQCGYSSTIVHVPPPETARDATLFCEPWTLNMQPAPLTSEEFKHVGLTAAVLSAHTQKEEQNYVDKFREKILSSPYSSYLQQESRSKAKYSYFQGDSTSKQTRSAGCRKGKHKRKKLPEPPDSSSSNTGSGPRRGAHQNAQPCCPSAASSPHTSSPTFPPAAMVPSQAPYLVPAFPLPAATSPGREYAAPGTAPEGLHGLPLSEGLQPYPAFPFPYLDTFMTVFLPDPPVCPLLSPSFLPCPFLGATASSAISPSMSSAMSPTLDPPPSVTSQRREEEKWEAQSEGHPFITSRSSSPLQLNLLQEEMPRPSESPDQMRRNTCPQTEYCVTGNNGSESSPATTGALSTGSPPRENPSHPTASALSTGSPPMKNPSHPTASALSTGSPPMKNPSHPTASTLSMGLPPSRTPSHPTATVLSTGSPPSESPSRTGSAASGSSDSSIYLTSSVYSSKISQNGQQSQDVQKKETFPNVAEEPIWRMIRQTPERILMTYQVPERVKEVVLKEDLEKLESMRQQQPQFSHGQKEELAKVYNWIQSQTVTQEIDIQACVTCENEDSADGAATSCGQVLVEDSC
UniProt O95613: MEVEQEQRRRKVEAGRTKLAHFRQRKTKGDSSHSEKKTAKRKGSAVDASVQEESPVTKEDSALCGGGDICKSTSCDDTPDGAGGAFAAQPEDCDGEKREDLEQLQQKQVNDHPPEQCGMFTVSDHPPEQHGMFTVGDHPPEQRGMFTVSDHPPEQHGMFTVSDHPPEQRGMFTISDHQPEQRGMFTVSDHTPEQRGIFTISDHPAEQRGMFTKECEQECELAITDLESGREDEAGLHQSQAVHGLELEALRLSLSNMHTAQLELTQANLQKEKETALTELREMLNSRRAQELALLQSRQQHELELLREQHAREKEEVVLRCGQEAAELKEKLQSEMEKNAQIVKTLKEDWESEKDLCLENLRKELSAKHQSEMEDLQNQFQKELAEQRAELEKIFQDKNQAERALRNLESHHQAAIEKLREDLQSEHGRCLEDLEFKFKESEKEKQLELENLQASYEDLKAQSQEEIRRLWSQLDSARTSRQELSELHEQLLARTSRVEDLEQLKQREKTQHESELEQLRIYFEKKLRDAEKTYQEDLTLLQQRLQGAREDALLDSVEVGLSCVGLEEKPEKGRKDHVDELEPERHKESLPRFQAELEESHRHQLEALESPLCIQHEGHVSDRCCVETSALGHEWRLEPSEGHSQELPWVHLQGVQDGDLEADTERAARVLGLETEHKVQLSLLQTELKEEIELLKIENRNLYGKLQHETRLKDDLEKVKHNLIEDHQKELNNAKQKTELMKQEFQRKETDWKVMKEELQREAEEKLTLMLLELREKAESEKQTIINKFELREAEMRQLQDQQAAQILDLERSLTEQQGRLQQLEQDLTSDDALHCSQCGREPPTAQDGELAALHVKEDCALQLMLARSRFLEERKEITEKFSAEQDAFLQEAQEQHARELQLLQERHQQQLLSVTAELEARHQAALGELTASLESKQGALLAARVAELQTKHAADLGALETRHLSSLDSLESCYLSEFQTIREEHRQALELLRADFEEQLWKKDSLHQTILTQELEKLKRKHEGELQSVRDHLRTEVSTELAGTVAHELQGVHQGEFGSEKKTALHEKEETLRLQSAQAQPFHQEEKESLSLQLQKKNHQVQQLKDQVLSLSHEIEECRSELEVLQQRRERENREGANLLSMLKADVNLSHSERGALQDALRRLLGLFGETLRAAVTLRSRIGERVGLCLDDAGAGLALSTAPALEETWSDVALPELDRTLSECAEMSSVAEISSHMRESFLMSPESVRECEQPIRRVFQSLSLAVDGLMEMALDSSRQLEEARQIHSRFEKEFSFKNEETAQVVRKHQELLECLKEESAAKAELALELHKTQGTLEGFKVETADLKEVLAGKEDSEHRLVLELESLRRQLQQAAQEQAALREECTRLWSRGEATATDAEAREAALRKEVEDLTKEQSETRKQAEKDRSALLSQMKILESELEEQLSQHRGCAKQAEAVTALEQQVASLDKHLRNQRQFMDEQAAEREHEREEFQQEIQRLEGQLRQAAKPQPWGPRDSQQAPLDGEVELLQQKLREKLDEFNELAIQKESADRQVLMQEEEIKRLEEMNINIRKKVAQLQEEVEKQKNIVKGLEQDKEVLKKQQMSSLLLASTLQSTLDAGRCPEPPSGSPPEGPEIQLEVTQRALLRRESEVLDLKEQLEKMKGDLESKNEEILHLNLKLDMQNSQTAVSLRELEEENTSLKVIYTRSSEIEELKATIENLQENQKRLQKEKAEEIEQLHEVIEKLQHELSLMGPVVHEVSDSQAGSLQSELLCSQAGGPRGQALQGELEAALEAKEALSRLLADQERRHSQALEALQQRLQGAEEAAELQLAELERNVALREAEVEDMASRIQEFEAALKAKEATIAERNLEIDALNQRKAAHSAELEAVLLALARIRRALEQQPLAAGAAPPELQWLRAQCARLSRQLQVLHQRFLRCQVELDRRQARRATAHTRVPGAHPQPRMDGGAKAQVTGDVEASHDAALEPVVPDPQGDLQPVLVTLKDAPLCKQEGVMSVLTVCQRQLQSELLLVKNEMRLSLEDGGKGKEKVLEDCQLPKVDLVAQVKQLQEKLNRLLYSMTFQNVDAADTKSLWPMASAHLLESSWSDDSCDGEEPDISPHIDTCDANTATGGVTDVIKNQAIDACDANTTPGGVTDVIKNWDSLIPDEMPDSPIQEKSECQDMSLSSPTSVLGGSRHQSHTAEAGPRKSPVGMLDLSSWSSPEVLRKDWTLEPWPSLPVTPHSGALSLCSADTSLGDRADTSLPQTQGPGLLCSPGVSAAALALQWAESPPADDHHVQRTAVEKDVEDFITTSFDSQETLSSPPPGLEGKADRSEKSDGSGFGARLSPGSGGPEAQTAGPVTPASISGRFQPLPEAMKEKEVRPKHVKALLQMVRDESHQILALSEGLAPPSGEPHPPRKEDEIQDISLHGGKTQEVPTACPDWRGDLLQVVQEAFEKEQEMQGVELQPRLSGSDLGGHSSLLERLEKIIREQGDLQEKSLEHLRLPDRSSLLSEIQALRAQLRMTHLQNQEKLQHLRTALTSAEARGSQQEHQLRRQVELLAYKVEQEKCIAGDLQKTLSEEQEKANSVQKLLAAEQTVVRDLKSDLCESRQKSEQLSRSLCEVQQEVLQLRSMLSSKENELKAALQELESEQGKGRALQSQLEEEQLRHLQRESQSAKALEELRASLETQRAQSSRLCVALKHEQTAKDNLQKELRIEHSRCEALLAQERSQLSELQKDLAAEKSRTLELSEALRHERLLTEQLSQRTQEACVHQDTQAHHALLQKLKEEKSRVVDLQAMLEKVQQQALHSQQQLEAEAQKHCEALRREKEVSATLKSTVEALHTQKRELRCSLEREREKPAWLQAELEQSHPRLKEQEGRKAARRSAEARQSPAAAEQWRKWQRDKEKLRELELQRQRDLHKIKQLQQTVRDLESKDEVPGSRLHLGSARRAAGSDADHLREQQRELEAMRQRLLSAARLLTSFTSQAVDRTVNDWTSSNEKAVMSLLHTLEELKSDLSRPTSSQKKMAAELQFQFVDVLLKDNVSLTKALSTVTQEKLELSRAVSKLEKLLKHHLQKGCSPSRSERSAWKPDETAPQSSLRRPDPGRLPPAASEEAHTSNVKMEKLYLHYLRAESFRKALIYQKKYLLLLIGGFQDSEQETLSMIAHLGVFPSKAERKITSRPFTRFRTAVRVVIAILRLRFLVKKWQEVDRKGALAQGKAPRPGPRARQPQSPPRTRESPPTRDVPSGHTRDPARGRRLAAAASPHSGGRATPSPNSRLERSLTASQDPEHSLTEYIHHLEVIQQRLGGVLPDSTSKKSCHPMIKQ
UniProt Q8WUM4: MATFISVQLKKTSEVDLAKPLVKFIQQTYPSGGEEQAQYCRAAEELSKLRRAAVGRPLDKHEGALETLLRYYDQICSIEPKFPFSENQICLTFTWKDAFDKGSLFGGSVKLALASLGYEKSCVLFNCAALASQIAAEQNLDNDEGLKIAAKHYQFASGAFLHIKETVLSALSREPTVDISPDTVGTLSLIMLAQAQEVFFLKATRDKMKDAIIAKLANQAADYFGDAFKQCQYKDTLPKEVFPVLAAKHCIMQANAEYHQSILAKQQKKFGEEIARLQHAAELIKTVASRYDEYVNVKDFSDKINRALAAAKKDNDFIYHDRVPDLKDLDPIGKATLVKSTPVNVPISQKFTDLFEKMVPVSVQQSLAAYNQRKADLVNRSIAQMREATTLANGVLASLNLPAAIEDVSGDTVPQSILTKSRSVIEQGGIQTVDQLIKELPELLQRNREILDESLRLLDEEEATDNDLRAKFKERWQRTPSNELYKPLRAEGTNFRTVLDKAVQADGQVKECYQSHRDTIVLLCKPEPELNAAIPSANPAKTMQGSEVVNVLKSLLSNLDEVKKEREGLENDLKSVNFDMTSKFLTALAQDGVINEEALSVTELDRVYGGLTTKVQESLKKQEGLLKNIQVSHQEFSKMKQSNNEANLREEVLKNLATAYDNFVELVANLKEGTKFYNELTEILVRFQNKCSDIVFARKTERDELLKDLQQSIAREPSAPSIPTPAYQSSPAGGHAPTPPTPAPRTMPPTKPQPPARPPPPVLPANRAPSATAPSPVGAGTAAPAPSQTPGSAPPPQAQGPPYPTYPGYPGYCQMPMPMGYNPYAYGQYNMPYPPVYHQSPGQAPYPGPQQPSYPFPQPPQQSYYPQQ
UniProt Q15102: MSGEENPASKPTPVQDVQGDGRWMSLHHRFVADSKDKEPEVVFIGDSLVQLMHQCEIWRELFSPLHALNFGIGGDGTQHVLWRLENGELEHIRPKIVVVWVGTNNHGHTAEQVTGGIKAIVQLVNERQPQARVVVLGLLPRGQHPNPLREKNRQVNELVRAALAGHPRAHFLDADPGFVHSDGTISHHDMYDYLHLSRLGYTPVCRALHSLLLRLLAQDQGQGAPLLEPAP
UniProt Q14554: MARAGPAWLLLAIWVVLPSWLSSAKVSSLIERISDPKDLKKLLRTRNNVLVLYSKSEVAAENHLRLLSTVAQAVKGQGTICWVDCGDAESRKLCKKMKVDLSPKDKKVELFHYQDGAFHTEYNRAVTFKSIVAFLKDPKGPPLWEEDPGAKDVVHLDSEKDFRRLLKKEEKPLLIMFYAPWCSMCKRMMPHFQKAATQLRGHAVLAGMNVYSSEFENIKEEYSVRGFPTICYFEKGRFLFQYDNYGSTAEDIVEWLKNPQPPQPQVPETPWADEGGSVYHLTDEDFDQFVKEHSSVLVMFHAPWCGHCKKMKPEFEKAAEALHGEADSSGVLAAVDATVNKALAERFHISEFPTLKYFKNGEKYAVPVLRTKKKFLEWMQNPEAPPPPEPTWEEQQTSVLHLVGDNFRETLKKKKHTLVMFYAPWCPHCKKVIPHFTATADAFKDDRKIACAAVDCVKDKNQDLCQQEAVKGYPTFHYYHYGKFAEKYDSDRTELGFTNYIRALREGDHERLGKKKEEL
UniProt Q9BUL8: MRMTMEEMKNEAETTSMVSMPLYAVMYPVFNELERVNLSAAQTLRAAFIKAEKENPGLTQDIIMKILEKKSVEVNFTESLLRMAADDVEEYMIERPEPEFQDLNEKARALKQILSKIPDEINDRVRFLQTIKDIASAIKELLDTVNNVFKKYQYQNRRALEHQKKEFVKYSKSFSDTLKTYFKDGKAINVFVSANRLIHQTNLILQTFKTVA

[2] = compound: C[C@@H](Oc1cc(-c2cnn(C3CCNCC3)c2)cnc1N)c1c(Cl)ccc(F)c1Cl [crizotinib]
Summary of the method: as §1

[3] = compound: C[C@@H]1COCCN1C2=NC(=NC(=C2)C3(CC3)S(=O)(=O)C)C4=C5C=CNC5=CC=C4
Summary of the method: as §1

[4] = compound: C[C@H](C1=CC=C(C=C1)C(=O)NC2=C3C=CNC3=NC=C2)N
Summary of the method: as §1

[5] = compound: Cc1cc(Nc2cc(CN3CCOCC3)c3nc(C)c(Cc4ccc(Cl)cc4F)n3n2)n[nH]1 [gandotinib]
Summary of the method: as §1

[6] = compound: Cc1cc(SCc2sc(-c3ccc(C(F)(F)F)cc3)nc2C)ccc1OCC(=O)O
Summary of the method: as §1

[7] = compound: Cc1ccc(-n2nc(C(C)(C)C)cc2NC(=O)Nc2ccc(OCCN3CCOCC3)c3ccccc23)cc1 [doramapimod]
Summary of the method: as §1

[8] = compound: Cc1ccc(C(=O)N(CCCN)[C@@H](c2nc3cc(Cl)ccc3c(=O)n2Cc2ccccc2)C(C)C)cc1 [ispinesib]
Summary of the method: as §1

[9] = compound: Cc1ccc(NC(=O)c2ccc(CN3CC[C@H](N(C)C)C3)c(C(F)(F)F)c2)cc1Nc1nccc(-c2cncnc2)n1 [bafetinib]
Summary of the method: as §1

[10] = compound: Cc1cccc(CC(=O)N2CCc3c2ccc(-c2cn(C)c4ncnc(N)c24)c3F)n1
Summary of the method: as §1

[11] = compound: Cc1cn(-c2cc(NC(=O)c3ccc(C)c(Nc4nccc(-c5cccnc5)n4)c3)cc(C(F)(F)F)c2)cn1 [nilotinib]
Summary of the method: as §1

[12] = compound: Cc1nc(Nc2n[nH]c3c2CN(C(=O)N[C@H](CN(C)C)c2ccccc2)C3(C)C)c2sccc2n1
Summary of the method: as §1

[13] = compound: Cc1nc(Nc2ncc(C(=O)Nc3c(C)cccc3Cl)s2)cc(N2CCN(CCO)CC2)n1 [dasatinib]
Summary of the method: as §1

[14] = compound: Cc1ncc(-c2ccnc(Nc3ccc(S(C)(=O)=O)cc3)n2)n1C(C)C
Summary of the method: as §1

[15] = compound: Cn1cc(-c2ccc3c(c2)CCN3C(=O)Cc2cccc(C(F)(F)F)c2)c2c(N)ncnc21
Summary of the method: as §1

[16] = compound: Cn1cc(-c2ccc3nnc(C(F)(F)c4ccc5ncccc5c4)n3n2)cn1
Summary of the method: as §1

[17] = compound: Cn1cncc1[C@@](N)(c1ccc(Cl)cc1)c1ccc2c(c1)c(-c1cccc(Cl)c1)cc(=O)n2C [tipifarnib]
Summary of the method: as §1

[18] = compound: FC(F)(F)c1ccc(/C=C/c2nc(COc3ccc(CCCCn4ccnn4)cc3)co2)cc1 [mubritinib]
Summary of the method: as §1

[19] = compound: C[C@H](Nc1ncnc2nc[nH]c12)c1cc2cccc(Cl)c2c(=O)n1-c1ccccc1 [duvelisib]
Summary of the method: as §1

[20] = compound: Cc1cc(Nc2cc(N3CCN(C)CC3)nc(Sc3ccc(NC(=O)C4CC4)cc3)n2)n[nH]1 [tozasertib]
Summary of the method: as §1

Measured: log2 fold change

PDCD6 (UniProt O75340)
inactive: [1] 0.029 | [2] -0.047 | [3] 0.051 | [4] -0.021 | [5] -0.056 | [6] 0.038 | [7] 0.002 | [8] -0.045 | [9] -0.11 | [10] -0.005 | [11] -0.071 | [12] 0.042 | [13] -0.021 | [14] -0.026 | [15] 0.027 | [16] 0.022 | [17] -0.034 | [18] 0.009

PDCD11 (UniProt Q14690)
inactive: [1] -0.054 | [2] -0.117 | [3] 0.196 | [4] 0.056 | [19] 0.053 | [5] -0.073 | [20] -0.132 | [6] -0.171 | [7] -0.03 | [8] -0.173 | [9] 0.094 | [10] -0.008 | [11] -0.215 | [12] 0.196 | [13] 0.186 | [14] -0.093 | [15] 0.009 | [16] 0.109 | [17] -0.152 | [18] 0.134

PDIA3 (UniProt H7BZJ3)
inactive: [1] 0.14 | [2] 0.045 | [3] -0.175 | [4] 0.092 | [19] 0.168 | [5] 0.075 | [20] -0.029 | [6] -0.098 | [7] 0.026 | [9] -0.046 | [10] 0.001 | [11] 0.121 | [12] 0.067 | [13] 0.126 | [14] -0.069 | [15] -0.281 | [17] 0.085 | [18] -0.074

PER3 isoform 2 (UniProt P56645)
inactive: [1] -0.031 | [2] 0.08 | [3] -0.004 | [4] -0.165 | [19] -0.036 | [5] 0.058 | [20] 0.019 | [6] -0.113 | [7] 0.034 | [8] 0.024 | [9] -0.032 | [10] -0.035 | [11] 0.022 | [12] 0.023 | [13] 0.051 | [14] 0.053 | [15] -0.021 | [16] -0.126 | [17] 0.053 | [18] -0.01

PCNT (UniProt O95613)
inactive: [1] 0.119 | [2] 0.023 | [3] 0.09 | [4] 0.153 | [5] 0.06 | [6] -0.006 | [7] -0.023 | [8] -0.099 | [9] -0.227 | [10] -0.324 | [11] -0.117 | [12] 0.045 | [13] 0.085 | [14] -0.002 | [15] -0.076 | [16] 0.107 | [17] 0.127 | [18] -0.004

PDCD6IP (UniProt Q8WUM4)
inactive: [1] 0.078 | [2] -0.177 | [3] 0.067 | [4] 0.077 | [5] -0.117 | [6] 0.17 | [7] -0.042 | [8] -0.14 | [9] 0.042 | [10] 0.157 | [11] -0.116 | [12] -0.205 | [13] -0.283 | [14] 0.069 | [15] 0.016 | [16] 0.068 | [17] -0.221 | [18] 0.105

PAFAH1B3 (UniProt Q15102)
inactive: [1] 0.059 | [2] 0.041 | [3] 0.165 | [4] -0.039 | [5] -0.062 | [6] 0.031 | [7] -0.009 | [8] 0.014 | [9] 0.003 | [10] 0.058 | [11] 0.008 | [12] -0.031 | [13] -0.065 | [14] -0.011 | [15] 0.192 | [16] 0.039 | [17] -0.163 | [18] 0.075

PDSS2 (UniProt Q86YH6)
inactive: [1] -0.034 | [2] 0.078 | [3] 0.075 | [4] -0.058 | [5] 0.098 | [6] 0.149 | [7] 0.049 | [8] -0.031 | [9] 0.077 | [10] 0.048 | [11] 0.029 | [12] 0.163 | [13] 0.06 | [14] -0.154 | [15] 0.052 | [16] 0.02 | [17] -0.095

PARP1 (UniProt P09874)
inactive: [1] 0.088 | [2] 0.037 | [3] 0.007 | [4] 0.012 | [5] -0.029 | [6] 0.165 | [7] -0.065 | [8] -0.126 | [9] 0.05 | [10] -0.009 | [11] -0.028 | [12] -0.112 | [13] -0.245 | [14] 0.178 | [15] 0.026 | [16] 0.131 | [17] -0.117 | [18] 0.044

PCBP2 isoform 3 (UniProt Q15366)
inactive: [1] -0.036 | [2] -0.018 | [3] 0.06 | [4] -0.031 | [5] -0.065 | [6] 0.072 | [7] -0.008 | [8] 0.005 | [9] 0.037 | [10] 0.083 | [11] -0.095 | [12] -0.156 | [13] -0.132 | [14] -0.058 | [15] 0.007 | [16] 0.018 | [17] -0.08 | [18] 0.004

PEF1 (UniProt Q9UBV8)
inactive: [1] 0.119 | [2] 0.094 | [3] 0.059 | [4] -0.102 | [5] -0.019 | [6] 0.019 | [7] -0.091 | [8] 0.208 | [9] -0.106 | [10] 0.089 | [11] -0.005 | [12] 0.012 | [13] -0.047 | [14] -0.013 | [15] 0.132 | [16] 0.113 | [17] -0.126 | [18] 0.099

PDIA5 (UniProt Q14554)
inactive: [1] 0.014 | [2] 0.114 | [3] -0.133 | [4] 0.093 | [19] -0.078 | [5] 0.103 | [20] 0.036 | [6] 0.049 | [7] 0.022 | [8] 0.023 | [9] 0.02 | [10] -0.008 | [11] 0.013 | [12] 0.028 | [13] 0.031 | [14] -0.059 | [15] -0.057 | [16] 0.014 | [17] 0.088 | [18] -0.095

PDCD10 (UniProt Q9BUL8)
inactive: [1] 0.047 | [2] -0.163 | [3] 0.003 | [4] -0.054 | [19] 0.05 | [5] -0.01 | [20] -0.06 | [6] 0.025 | [7] -0.009 | [8] -0.041 | [9] -0.015 | [10] -0.009 | [11] -0.042 | [12] 0.217 | [13] -0.175 | [14] -0.026 | [15] 0.018 | [16] -0.017 | [17] -0.056 | [18] 0.009

Taken from the listing (three entries):
PEF1 (UniProt Q9UBV8)
inactive: [1] 0.119 | [2] 0.094 | [3] 0.059 | [4] -0.102 | [5] -0.019 | [6] 0.019 | [7] -0.091 | [8] 0.208 | [9] -0.106 | [10] 0.089 | [11] -0.005 | [12] 0.012 | [13] -0.047 | [14] -0.013 | [15] 0.132 | [16] 0.113 | [17] -0.126 | [18] 0.099

PDIA5 (UniProt Q14554)
inactive: [1] 0.014 | [2] 0.114 | [3] -0.133 | [4] 0.093 | [19] -0.078 | [5] 0.103 | [20] 0.036 | [6] 0.049 | [7] 0.022 | [8] 0.023 | [9] 0.02 | [10] -0.008 | [11] 0.013 | [12] 0.028 | [13] 0.031 | [14] -0.059 | [15] -0.057 | [16] 0.014 | [17] 0.088 | [18] -0.095

PDCD10 (UniProt Q9BUL8)
inactive: [1] 0.047 | [2] -0.163 | [3] 0.003 | [4] -0.054 | [19] 0.05 | [5] -0.01 | [20] -0.06 | [6] 0.025 | [7] -0.009 | [8] -0.041 | [9] -0.015 | [10] -0.009 | [11] -0.042 | [12] 0.217 | [13] -0.175 | [14] -0.026 | [15] 0.018 | [16] -0.017 | [17] -0.056 | [18] 0.009

Next results:

PDCD4 (UniProt Q53EL6)
inactive: [1] 0.096 | [2] 0.09 | [3] 0.303 | [4] 0.007 | [5] -0.141 | [6] 0.066 | [7] -0.047 | [8] 0.039 | [9] 0.065 | [10] -0.014 | [11] 0.017 | [12] 0.025 | [13] -0.144 | [14] 0.144 | [15] 0.022 | [16] 0.077 | [17] -0.172 | [18] 0.104

PELO (UniProt Q9BRX2)
inactive: [1] 0.026 | [2] -0.15 | [3] -0.037 | [4] 0.158 | [5] -0.096 | [6] 0.07 | [7] 0.077 | [8] -0.336 | [9] 0.068 | [10] 0.155 | [11] -0.021 | [12] -0.067 | [13] -0.054 | [14] -0.02 | [15] 0.042 | [16] 0.061 | [17] -0.136 | [18] -0.111

PDE2A (UniProt O00408)
inactive: [1] -0.064 | [2] 0.004 | [3] 0.223 | [4] -0.108 | [5] 0.117 | [6] 0.045 | [7] -0.026 | [8] -0.067 | [9] 0.021 | [10] -0.02 | [11] 0.023 | [12] 0.016 | [13] -0.103 | [14] -0.012 | [15] 0.063 | [16] -0.03 | [17] -0.031 | [18] -0.051

PDIK1L (UniProt Q8N165)
active: [12] 0.578
inactive: [1] 0.009 | [2] -0.082 | [3] -0.003 | [4] 0.029 | [6] 0.017 | [7] 0.085 | [8] 0.039 | [9] 0.166 | [11] -0.026 | [13] -0.081 | [14] -0.037 | [15] 0.05 | [16] 0.13 | [17] -0.152 | [18] 0.034
